Where two headings read alike, the source gives them in different places. Results are given in words; binding and its absence hold for the method and conditions named. Binding seen in cells or lysates may run through a third protein. Some binding calls cover weakened binding; strength is not graded here. For some of these results: Where a sequence is shown, tags or fusion partners need not be part of it.
T1: CCDC127-HA (human) (UniProt Q96BQ5)
T1 sequence: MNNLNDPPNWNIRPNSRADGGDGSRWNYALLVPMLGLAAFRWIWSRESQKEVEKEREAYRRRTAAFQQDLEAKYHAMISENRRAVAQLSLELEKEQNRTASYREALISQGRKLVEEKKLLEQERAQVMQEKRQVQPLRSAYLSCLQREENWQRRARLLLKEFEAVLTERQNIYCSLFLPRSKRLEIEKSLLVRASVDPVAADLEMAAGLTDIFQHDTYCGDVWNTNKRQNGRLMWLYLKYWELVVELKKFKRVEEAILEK

Protein sequences, listed by entry. Tags and fused reporters are not part of them. Residues count along the entry.
UniProt Q5TGZ0: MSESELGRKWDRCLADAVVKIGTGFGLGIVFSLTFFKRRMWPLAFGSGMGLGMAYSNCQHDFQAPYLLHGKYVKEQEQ
UniProt O95831, residues 102-613: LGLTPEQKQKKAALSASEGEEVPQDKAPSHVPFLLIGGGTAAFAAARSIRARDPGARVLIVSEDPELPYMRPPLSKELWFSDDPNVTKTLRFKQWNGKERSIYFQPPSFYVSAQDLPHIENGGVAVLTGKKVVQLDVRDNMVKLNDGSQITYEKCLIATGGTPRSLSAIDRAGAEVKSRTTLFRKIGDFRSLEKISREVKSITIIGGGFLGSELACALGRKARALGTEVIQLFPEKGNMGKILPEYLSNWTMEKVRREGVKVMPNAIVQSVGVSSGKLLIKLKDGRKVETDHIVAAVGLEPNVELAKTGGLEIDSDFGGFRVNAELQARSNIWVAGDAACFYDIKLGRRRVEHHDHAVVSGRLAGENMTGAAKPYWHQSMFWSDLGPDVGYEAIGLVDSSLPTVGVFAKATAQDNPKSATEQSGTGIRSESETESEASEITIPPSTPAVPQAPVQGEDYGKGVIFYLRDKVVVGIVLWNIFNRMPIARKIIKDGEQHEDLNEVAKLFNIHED

T2: MIA40-Strep (human) (UniProt Q8N4Q1)
T2 sequence: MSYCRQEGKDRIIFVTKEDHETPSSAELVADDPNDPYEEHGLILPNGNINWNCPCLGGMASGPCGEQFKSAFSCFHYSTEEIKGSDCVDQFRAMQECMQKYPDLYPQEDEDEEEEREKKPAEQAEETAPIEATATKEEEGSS

B1: CPOX (protein, UniProt P36551 111-454)
chain: TSLGRPEEEEDELAHRCSSFMAPPVTDLGELRRRPGDMKTKMELLILETQAQVCQALAQVDGGANFSVDRWERKEGGGGISCVLQDGCVFEKAGVSISVVHGNLSEEAAKQMRSRGKVLKTKDGKLPFCAMGVSSVIHPKNPHAPTIHFNYRYFEVEEADGNKQWWFGGGCDLTPTYLNQEDAVHFHRTLKEACDQHGPDLYPKFKKWCDDYFFIAHRGERRGIGGIFFDDLDSPSKEEVFRFVQSCARAVVPSYIPLVKKHCDDSFTPQEKLWQQLRRGRYVEFNLLYDRGTKFGLFTPGSRIESILMSLPLTARWEYMHSPSENSKEAEILEVLRHPRDWVR
B2: MIA40 (endogenous) (protein, UniProt Q8N4Q1 1-142)
chain: T2 sequence
B3: CCDC127 (endogenous) (protein, UniProt Q96BQ5 1-260)
chain: T1 sequence

Experiments:
Assay in all cases: co-IP
CCDC127-HA (human) [1] = target: T1, CCDC127-HA (human)
MIA40-Strep (human) = target: T2, MIA40-Strep (human)
CCDC127-HA (human) [2] = target: T1, CCDC127-HA (human); remark: listed apart in the source
MIC10-FLAG = MIC10-FLAG (UniProt Q5TGZ0)

Row | Molecule | binding (CCDC127-HA (human) [1]) | binding (MIA40-Strep (human)) | binding (CCDC127-HA (human) [2]) | binding (MIC10-FLAG)
1 | FAM136A (from UniProt Q96C01 1-138) | no binding |  |  | 
2 | AIFM1 (from UniProt O95831 102-613) | binds | binds |  | 
3 | B1 | no binding | no binding | no binding | 
4 | B2 | binds |  | binds | 
5 | B3 |  | binds |  | binds

— article doi:10.64898/2025.12.12.693940
